{
  "source": "patent US4145337A",
  "about": "“Aminoethylglycine containing polypeptides” (Hoffmann-La Roche Inc., priority 1977, dated 1979)",
  "key": {"[1]": {"test_system": "basal gastric acid secretion", "experiment": "Gastric antisecretory activity in unanesthetized gastric fistula rat, i.v.", "type": "in vivo", "conditions": "200 μg i.v. single bolus", "method": "The gastric antisecretory effect of somatostatin analogs was studied in a model which utilizes unanesthetized rats.\nAll operative techniques were carried out on fasted female albino rats (average weight 250 g), under Penthrane anesthesia, using montraumatic microsurgical instruments, polyethylene tubing and a special adhesive. The basic model used in the present studies consisted of:\nThis allowed adequate hydration through the constant infusion of 0.15M NaCl (at the rate of 1.4 ml/hr.). This catheter was also used for i.v. administration of solutions of the test compounds.\n(b) Catheterization of the stomach. A cannula in the forestomach allowed washing of the gastric lumen with saline (before experiments). Water (0.2 ml/10 min) was infused through this catheter during the experimental periods. This was done to prevent obstruction of the \"collecting\" cannula (see below) by gastric debris and to obtain a practical workable volume to measure several parameters of gastric secretion. A second cannula was positioned in the glandular stomach, close to the greater curvature, in the more dependent site and in such a way as to allow collection, by gravity, of all fluids emerging from the stomach. Passage of these secretions through a small glass container permitted continuous recording of pH by means of a glass microelectrode. A fraction collector was used to simultaneously obtain the gastric secretions.\n(c) Catheterization of the lower part of the common bile duct to procure mixed secretions of bile and pancreatic juice as a function of time. This was done with the purpose of examining the effect of these compounds, if any, on bile flow.\nThis preparation is suitable for the bioassay of microgram quantities of gastric secretory depressants in which each animal serves as its own control. The rats (250 g b.w.) were allowed to attain a period of stabilized gastric acid output (for one hour) and were then injected intravenously (100 μl) with 200 μg of the test compound. This single bolus injection was immediately followed by a rinsing injection of 50 μl saline, thus insuring quantitative delivery of the dose. The pH was recorded continuously for 1 hour before and 1 1/2 hour after the i.v. injection of the test compounds. The gastric secretions were collected over 10-minute intervals before and after dosage. Four parameters of gastric secretion were evaluated: (a) changes in the negative logarithm of the hydrogen ion activity (pH, determined by the glass electrode either by a continuous trace or in samples taken at 10-minute intervals); (b) volume; (c) total acid concentration (μEq/ml); and d) total acid output (μEq/10-min periods)."}, "[2]": {"test_system": "restraint-immersion induced gastric ulceration", "experiment": "Mouse restraint-immersion test, antiulcerogenic activity", "type": "in vivo", "method": "In both studies CD-1 male mice weighing between 18-25 g were used. The mice were fasted for 19 hours prior to the initiation of restraint-immersion which involved restraining animals in rubber hoses and immersion in water (21° C.) to the height of the xiphoid process. In the first study, just prior to the initiation of the restraint-immersion procedure, mice received, via the subcutaneous route, graded amounts (0.1 to 10 mg/kg b.w.) of somatostatin (Compound A), Compound F, or vehicle (5% acacia); this administration was repeated two hours later. In the second study, the compounds (Compound A, Compound L, or vehicle) were administered only once, just prior to the initiation of the restraint-immersion procedure. Following four hours of restraint-immersion the animals (both studies) were killed and their stomachs examined for ulceration. The degree of ulceration was determined by the amount of visible blood present in the stomach and was rated on a scale of 0 to 4, with 0 being no detectable blood and 4 being a massive amount of blood. All compounds were dispersed in 5% acacia and administered at a dosage volume of 0.2 ml per 20 grams of body weight. The antiulcerogenic ED50 values were calculated using percent protection as the response and a computer program (\"ED50\") based on the probit method of Finney (Finney, \"Probit Analysis\", Cambridge University Press, 1971). The comparative effectiveness (relative potency R. P.) of somatostatin and Compound F (first study) or somatostatin and Compound L (second study) was determined from the dose responses using an \"ED50\" computer program."}, "gastric mucus production": {"test_system": "gastric mucus production", "experiment": "Stimulation of mucoprotein production: gastric mucosal carbohydrates and total protein", "type": "in vivo, rat", "conditions": "800 μg/kg i.p.", "method": "Overnight fasted rats received saline solutions of either Compound M or Compound A at the antisecretory dose of 800μg/kg administered intraperitoneally. Control rats were given only vehicle. All animals were sacrificed by decapitation 1 hour after dosing. After opening the abdomen the stomach was removed and its contents were washed away with 10 ml of a 0.85% NaCl solution. The excised stomachs were cut open along the greater curvature and the exposed gastric mucosa was carefully scraped. The scrapings were homogenized in 5 ml of the 0.85% NaCl solution and subjected to chemical analysis. Total hexoses were determined by the anthrone reaction, which is based on the formation in concentrated sulfuric acid of furfural derivatives which react with anthrone to form a blue-green color; this reaction has the advantage of being applied directly to the glycoprotein with color formation occuring concurrently with the liberation of sugars (Methods in Enzymology, Vol. VIII, pp. 4-5 1966). Fucose in the unhydrolyzed mucoprotein was determined by the Dische-Shettes cysteine-sulfuric acid reaction for methyl pentoses. This method allows accurate determination of fucose even in the presence of large amounts of hexoses and peptide material (Methods in Eznymology, Vol. VIII, pp 11-13 , 1966).\nTotal protein was determined using the Lowry method."}, "[3]": {"conditions": "second study, single administration"}, "[4]": {"conditions": "1 hour after dosing, mucosal scrapings"}},
  "note": "Entries after “also recorded” stand apart in the source; their conditions may differ. Not every detail of the peptide structures is certain; ends, links or a residue may be inferred. Some compounds share one wording; it may come from a single statement. Starred links: 1 amine or outer side, 2 acyl side, 3 side chain; linkers in the order of their positions; H or OH if unused. Positions of bridges follow the written chain, without caps; N, C: chain ends. Non-standard residues stand in square brackets, D forms with d. Residues, ends and D or L forms follow the SMILES beside them. *: point of attachment. X1 = NCCNCC(=O)NCCN(CC(=O)[*:2])[*:1]; Gly(N-2-aminoethyl) = NCCNCC(=O)O; X2 = O=C(O)CNCCN*",
  "data": [
    {"smiles": "C[C@@H](O)[C@H](NC(=O)[C@H](Cc1ccccc1)NC(=O)[C@@H](NC(=O)[C@H](CCCCN)NC(=O)[C@H](Cc1c[nH]c2ccccc12)NC(=O)[C@H](Cc1ccccc1)NC(=O)[C@H](Cc1ccccc1)NC(=O)[C@H](CC(N)=O)NC(=O)[C@H](CCCCN)NC(=O)[C@H](CS)NC(=O)CNCCN)[C@@H](C)O)C(=O)N[C@@H](CO)C(=O)N[C@@H](CS)C(=O)O", "note": "[Compound F, Aminoethylglycyl-L-cysteinyl-L-lysyl-L-asparaginyl-L-phenyl-alanyl-L-phenylalanyl-L-tryptophyl-L-lysyl-L-threonyl-L-phenyl-alanyl-L-threonyl-L-seryl-L-cysteine] (H-[Gly(N-2-aminoethyl)]CKNFFWKTFTSC-OH)", "values": [
      {"measurement": "duration of gastric antisecretory effect", "setting": "[1]", "value": "longer duration of effect"},
      {"measurement": "gastric antisecretory activity (pH and acid concentration), in words, relative to somatostatin", "setting": "[1]", "value": "increased activity"},
      {"measurement": "fold less potent than somatostatin", "setting": "[2]; first study, s.c. twice", "value": "~5.6", "unit": "fold"},
      {"measurement": "prevention of restraint-immersion induced gastric ulceration, in words", "setting": "[2]; first study, s.c. twice", "value": "effective in preventing restraint-immersion induced gastric ulceration"},
      {"measurement": "antiulcerogenic ED50", "setting": "[2]; first study: s.c. just prior to restraint-immersion, repeated two hours later, 4 h restraint-immersion", "value": 1.93, "unit": "mg/kg"}
    ]},
    {"smiles": "C[C@@H](O)[C@@H]1NC(=O)[C@H](Cc2ccccc2)NC(=O)[C@H]([C@@H](C)O)NC(=O)[C@H](CCCCN)NC(=O)[C@H](Cc2c[nH]c3ccccc23)NC(=O)[C@H](Cc2ccccc2)NC(=O)[C@H](Cc2ccccc2)NC(=O)[C@H](CC(N)=O)NC(=O)[C@H](CCCCN)NC(=O)[C@@H](NC(=O)CNCCN)CSSC[C@@H](C(=O)O)NC(=O)[C@H](CO)NC1=O", "note": "[Compound G, Aminoethylglycyl-L-cysteinyl-L-lysyl-L-asparaginyl-L-phenylalanyl-L-phenylalanyl-L-tryptophyl-L-lysyl-L-threonyl-L-phenylalanyl-L-threonyl-L-seryl-L-cysteine (Oxidized form)] (H-[Gly(N-2-aminoethyl)]CKNFFWKTFTSC-OH; disulfide 2-13)", "values": [
      {"measurement": "duration of gastric antisecretory effect", "setting": "[1]", "value": "longer duration of effect"},
      {"measurement": "gastric antisecretory activity (pH and acid concentration), in words, relative to somatostatin", "setting": "[1]", "value": "increased activity"}
    ]},
    {"smiles": "C[C@@H](O)[C@H](NC(=O)[C@H](Cc1ccccc1)NC(=O)[C@@H](NC(=O)[C@H](CCCCN)NC(=O)[C@H](Cc1c[nH]c2ccccc12)NC(=O)[C@H](Cc1ccccc1)NC(=O)[C@H](Cc1ccccc1)NC(=O)[C@H](CC(N)=O)NC(=O)[C@H](CCCCN)NC(=O)[C@H](CS)NC(=O)CNCCNC(=O)CNCCN)[C@@H](C)O)C(=O)N[C@@H](CO)C(=O)N[C@@H](CS)C(=O)O", "note": "[Compound H, Aminoethylglycyl-aminoethylglycyl-L-cysteinyl-L-lysyl-L-asparaginyl-L-phenylalanyl-L-phenylalanyl-L-tryptophyl-L-lysyl-L-threonyl-L-pehnylalanyl-L-threonyl-L-seryl-L-cysteine] (H-[X1]CKNFFWKTFTSC-OH)", "values": [
      {"measurement": "duration of gastric antisecretory effect", "setting": "[1]", "value": "longer duration of effect"},
      {"measurement": "gastric antisecretory activity (pH and acid concentration), in words, relative to somatostatin", "setting": "[1]", "value": "increased activity"}
    ]},
    {"smiles": "C[C@@H](O)[C@H](NC(=O)[C@H](Cc1ccccc1)NC(=O)[C@@H](NC(=O)[C@H](CCCCN)NC(=O)[C@H](Cc1c[nH]c2ccccc12)NC(=O)[C@H](Cc1ccccc1)NC(=O)[C@H](Cc1ccccc1)NC(=O)[C@H](CC(N)=O)NC(=O)[C@H](CCCCN)NC(=O)[C@@H](N)CS)[C@@H](C)O)C(=O)N[C@@H](CO)C(=O)N[C@@H](CS)C(=O)NCCNCC(=O)O", "note": "[Compound I, L-Cysteinyl-L-lysyl-L-asparaginyl-L-phenylalanyl-L-phenylalanyl-L-tryptophyl-L-lysyl-L-threonyl-L-phenylalanyl-L-threonyl-L seryl-L-cysteinyl-aminoethylglycine] (H-CKNFFWKTFTSC-X2)", "values": [
      {"measurement": "gastric antisecretory activity (pH and acid concentration), in words, relative to somatostatin", "setting": "[1]", "value": "less active than somatostatin"}
    ]},
    {"smiles": "C[C@@H](O)[C@H](NC(=O)[C@H](Cc1ccccc1)NC(=O)[C@@H](NC(=O)[C@H](CCCCN)NC(=O)[C@@H](Cc1c[nH]c2ccccc12)NC(=O)[C@H](Cc1ccccc1)NC(=O)[C@H](Cc1ccccc1)NC(=O)[C@H](CC(N)=O)NC(=O)[C@H](CCCCN)NC(=O)[C@H](CS)NC(=O)CNCCN)[C@@H](C)O)C(=O)N[C@@H](CO)C(=O)N[C@@H](CS)C(=O)O", "note": "[Compound L, Aminoethylglycyl-L-cysteinyl-L-lysyl-L-asparaginyl-L-phenylalanyl-L-phenylalanyl-D-tryptophyl-L-lysyl-L-threonyl-L-phenylalanyl-L-threonyl-Lseryl-L-cysteine] (H-[Gly(N-2-aminoethyl)]CKNFF[dW]KTFTSC-OH)", "values": [
      {"measurement": "duration of gastric antisecretory effect", "setting": "[1]", "value": "signaificantly longer duration of effect"},
      {"measurement": "gastric antisecretory activity (pH and acid concentration), in words, relative to somatostatin", "setting": "[1]", "value": "Marked increase in biological activity"},
      {"measurement": "inhibition of restraint-immersion ulcer formation relative to somatostatin, in words", "setting": "[2]; second study", "value": "more potent inhibitors of restraint-immersion ulcer formation than somatostatin"},
      {"measurement": "fold more potent than somatostatin on the basis of ED50 values", "setting": "[2]; [3]", "value": "ca. 6.8 fold"},
      {"measurement": "fold more potent than somatostatin, relative potency (R. P.), entire dose response curve", "setting": "[2]; [3]", "value": "ca. 4.6 fold"},
      {"measurement": "ED50", "setting": "[2]; second study: administered only once just prior to restraint-immersion, 4 h", "value": 0.98, "unit": "mg/kg"}
    ]},
    {"smiles": "C[C@@H](O)[C@@H]1NC(=O)[C@H](Cc2ccccc2)NC(=O)[C@H]([C@@H](C)O)NC(=O)[C@H](CCCCN)NC(=O)[C@@H](Cc2c[nH]c3ccccc23)NC(=O)[C@H](Cc2ccccc2)NC(=O)[C@H](Cc2ccccc2)NC(=O)[C@H](CC(N)=O)NC(=O)[C@H](CCCCN)NC(=O)[C@@H](NC(=O)CNCCN)CSSC[C@@H](C(=O)O)NC(=O)[C@H](CO)NC1=O", "note": "[Compound M, Aminoethylglycyl-L-cysteinyl-L-lysyl-L-asparaginyl-L-phenylalanyl-L-phenylalanyl-L-phenylalanyl-D-tryptophyl-L-lysyl-L-threonyl-L-phenylalanyl-L-threonyl-L-seryl-L-cysteine (oxidized form)] (H-[Gly(N-2-aminoethyl)]CKNFF[dW]KTFTSC-OH; disulfide 2-13)", "values": [
      {"measurement": "duration of gastric antisecretory effect", "setting": "[1]", "value": "signaificantly longer duration of effect"},
      {"measurement": "gastric antisecretory activity (pH and acid concentration), in words, relative to somatostatin", "setting": "[1]", "value": "Marked increase in biological activity; also recorded: more active than somatostatin"},
      {"measurement": "Fucose, gastric mucosal concentration (mean)", "setting": "gastric mucus production; [4]", "value": 44.8, "unit": "μg/total sample"},
      {"measurement": "Hexose, gastric mucosal concentration (mean)", "setting": "gastric mucus production; [4]", "value": 243.5, "unit": "μg/total sample"},
      {"measurement": "Total Protein, gastric mucosal concentration (mean)", "setting": "gastric mucus production; [4]", "value": 303.2, "unit": "μg/total sample"},
      {"measurement": "gastric mucosal carbohydrates versus control, in words", "setting": "gastric mucus production; 1 hour after treatment", "value": "higher concentrations of carbohydrates (hexoses and fucose)"},
      {"measurement": "gastric mucosal total protein versus control, in words", "setting": "gastric mucus production; 1 hour after treatment", "value": "higher concentrations of carbohydrates (hexoses and fucose) as well as total protein than the control group"},
      {"measurement": "stimulation of mucus production, in words", "setting": "gastric mucus production; normal rat", "value": "somewhat more active than Compound A, but this difference did not reach statistical significance; also recorded: capable of provoking an enhancement of mucus production in the stomach wall"}
    ]}
  ]
}
